Laboratory results reported in patent publication US20240132598A1.
Results are given in words; binding and its absence hold for the method and conditions named. Some binding calls cover weakened binding; strength is not graded here. For some of these results: Tags and fused reporters may be left off the sequences shown.

T1: hFLT3-His fusion protein (human) (UniProt P36888)
T1 sequence (looked up): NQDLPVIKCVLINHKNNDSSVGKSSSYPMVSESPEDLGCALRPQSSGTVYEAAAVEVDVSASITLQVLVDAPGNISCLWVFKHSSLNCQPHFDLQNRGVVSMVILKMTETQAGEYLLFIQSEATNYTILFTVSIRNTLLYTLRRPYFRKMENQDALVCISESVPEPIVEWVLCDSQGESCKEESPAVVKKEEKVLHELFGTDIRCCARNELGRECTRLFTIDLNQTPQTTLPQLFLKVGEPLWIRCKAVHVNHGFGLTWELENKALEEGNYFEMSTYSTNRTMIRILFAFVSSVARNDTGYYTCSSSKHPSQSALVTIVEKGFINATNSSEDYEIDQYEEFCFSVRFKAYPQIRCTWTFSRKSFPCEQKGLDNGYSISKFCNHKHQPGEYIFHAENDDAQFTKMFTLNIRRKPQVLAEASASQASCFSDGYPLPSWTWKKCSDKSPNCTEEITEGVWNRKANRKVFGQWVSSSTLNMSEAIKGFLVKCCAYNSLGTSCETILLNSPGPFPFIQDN


Assays:
[1] = target: T1, hFLT3-His fusion protein (human); assay: SPR, purified subclone mAb
[2] = target: cynomolgus monkey FLT3 expressed on RMA cells (cynomolgus monkey); assay: flow cytometry, purified mAb on RMA-cFLT3 cells
[3] = target: T1, hFLT3-His fusion protein (human); assay: SPR, purified murine subclone mAb with an hFLT3-His concentration series, 1:1 binding fit
[4] = target: T1, hFLT3-His fusion protein (human); assay: summary of kinetics and affinity for recombinant hFLT3 protein

| binding [1] | binding [2] | binding [3] | binding [4] | Binder |
| --- | --- | --- | --- | --- |
| binds | binds | – | – | 12H10.G7 (antibody, V domains shown) VH: EVQLQESGPELVKPGASVKMSCKASGYTFTRYVMHWVKQRPGQGLEWIGFINPYNDDTKYNEKFKGKATLTSDKSSSTAYMELSSLTSEDSAVYHCARWRQLGSLDSWGQGTTLTVSS VL: NIVLTQSPASLAVSLGQRATISCRASESVDTYGSSFVHWYQQKPGQPPKLLIYLASNLESGVPARFSGSGSRSDFTLTIDPVEADDAATYYCQQNNEEPWTFGGGTKLEIK |
| – | – | binds | – | 4A4.H7 (antibody, V domains shown) VH: EVQLQESGPELVKPGASVKISCKASGYSFTGYYIHWVKQSPEESLEWIGEIYPNTGITTYNQKFTAKATLTVDKSSNTAYMQLKSLTSEDSAVYYCTRWGDYYGRDYWGQGTSVTVSS VL: DIVLTQSPASLAVSLGQRATISCRASETVDTHGNSFMHWYQQKPGQPPKLLIYRASNLESGIPARFSGSGSRTDFTLTINPVEADDVATYYCQQSNEDPRTFGGGTKLEIK |
| binds | binds | – | – | 11F4.B9 (antibody, V domains shown) VH: EVQLQESGPELVKPGASVKISCKASGYSFTGYYIHWVKQGPEKSLEWIGEIIPSTGSTIYNQKFKAKATLTVDKSSSTAYLQLKSLTSEDSAVYYCERWGDYYGRDYWGQGTSVTVSS VL: DIVLTQSPASLAVSLGQRATISCRASESVDIYGNSFMHWYQQKPGQPPKLLIYRASNLESGIPARFSGSGSRTDFTLTINPVEADDVATYYCQQSNEDPRTFGGGTKLEIK |
| binds | binds | – | – | 1A2.A3 (antibody, V domains shown) VH: EVQLQESGPELVKPGASVKISCKASGYSFTGYYIHWVKQSPEESLEWIGEIYPNTGITTYNQKFTAKATLTVDKSSNTAYMQLKSLTSEDSAVYYCTRWGDYYGRDYWGQGTSVTVSS VL: DIVLTQSPASLAVSLGQRATISCRASETVDTHGNSFMHWYQQKPGQPPKLLIYRASNLESGIPARFSGSGSRTDFTLTINPVEADDVATYYCQQSNEDPRTFGGGTKLEIK |
| binds | – | – | – | 12C9.E5 (antibody, V domains shown) VH: EVQLQESGAELVRPGASVKLSCKASGYIFTDYEIHWVKQTPVHGLEWIGAIDPETGITAYSQKFKGKATLTTDTSSSTAYMEFRSLTSEDSAVYYCTRGGLLYWGQGTSVTVSS VL: DVVMTQTPLSLSVTIGQPASISCKSSQSLLYSDGETYLNWLQQRPGQSPKRLMYQVSKLDPGIPDRFSGSGSETDFTLKISRVEAEDLGIYYCLQGTFYPHTFGGGTKLEIK |
| binds | binds | – | binds | 4A4.A3 (antibody, V domains shown) VH: QVTLKESGPGILQPSQTLSLTCSFSGFSLTTYGMGVGWIRQPSGKGLEWLANIWFNDNKYYNSTLKSRLTISKDTSNNQVFLKISSVDTTDTATYYCAQITTVVGTFDYWGQGSPLTVSP VL: RIVMTQSPTTMAASPGEKITITCSASSSISSIYLHWYQQKPGFSPKLLIFRTSDLASGVPPRFGGSGSGTSYSLTIGTMEAEDVATYYCQQGSSFPRTFGGGTKLEIK |
| – | – | binds | – | 14H8.E7 (antibody, V domains shown) VH: EVQLQESGAELVKPGASVKLSCKASGYTFTNYWINWLKQRPGQGLEWIGNIYPGSTIINYNEKFKNKATLTVDTSSSTAYMQLSSLTSDDSAVYYCARRVVYLYFDSWGQGTTLTVSS VL: QIVLTQSPAIMSASPGEKVTMTCSASSSVSYMHWYQQKSGTSPKRWIFDTSKLASGVPVRFSGSGSGTSYSLTITNMETEDAATYYCQQWSSKSPTFGGGTKLEIK |
| binds | binds | – | binds | 14A5.E8 (antibody, V domains shown) VH: EVQLQESGAELVQPGASVRLSCKASGYTFTSYWINWVKQRPGQGLEWIGNIYPGSSIINYNENFKNRATLTVDTSSSTAYMQLSSLTSDDSAVYYCARRVVYLYFDYWGQGTTLTVSS VL: QIVLTQSPAIMSASPGEKVTMTCSASSSVSYMHWYQQKSGTSPKRWIYDTSKLASGVPARFSGSGSGTSYSLTISSMEAEDAATYYCQQWTSKSPTFGGGTKLEIK |
| binds | binds | – | – | 15A11.C8 (antibody, V domains shown) VH: EVQLQESGGGLVKTGGSRKLSCAASGFTFSDYGMHWVRHTPEKGLEWVVYISSGGNTIFYTDTVKGRFTISRDNAKNTLFLQMTSLRSEDTAVYFCVRQGYYYAMDYWGQGASVTVSS VL: DIQMTQTTSSLSASLGDRVTIRCRASQDITNYLNWYQQKPDGAVKLLISYTSILQSGVPSRFSGSGSGTDYSLTISNLEQGDVATYFCQQGSSLPWTFGGGTKLEIK |
| binds | binds | – | – | 4H2.E3 (antibody, V domains shown) VH: EVQLQESGPELVKPGASVKMSCKASGYTFTSYLMHWMKQKPGQGLEWIGYINPYSDGIKYNEKFRDKATLTSDKSSNTAYMELSSLTSEDSAVYYCAHSSGYVGYAMDYWGQGTSVTVSS VL: GIVMTQTTPSVPVTPGESVSISCRSSKSLLHSNGNTYLYWFLQRPGQSPQLLIYRMSNLASGVPDRFSGSGSGTTFTLRISRVEAEDVGVYYCMQHLEYPFTFGSGTKLEIK |
